According to patent US9370589B2, “Switching fluorescent nanoparticle probe and fluorescent particle imaging method using same” (SHIMADZU CORPORATION, priority 2010, dated 2016):
For at least one compound, name, drawing or mass did not settle the structure.

Tests used:
[1] = Dependence of fluorescence intensity of fluorescent dye-encapsulating lactosome on fluorescent dye content; format: physicochemical
Method: Lactosomes encapsulating, as a fluorescent dye, IC7-1, IC7-2, IR820, IR783, or IR806 were prepared by changing the fluorescent dye content (1 mg/mL), and were then mixed with PBS, 5 wt % SDS, 5 wt % BSA, or plasma 1:1 (volume ratio), and the mixture was allowed to stand at room temperature for 30 minutes under lightproof conditions, and then diluted with PBS so that the concentration of the amphiphilic polymer was 1/15 mg/mL to measure the intensity of fluorescence using Fluorolog-3 (HORIBA Jobin Yvon Inc.) (FIG. 6).

[2] = Fluorescence intensity before and after change in external environment (addition of 5 wt % SDS); settings: lactosome containing 20 mol % of dye (IC7-2: 15 mol %)
[3] = Fluorescence intensity before and after change in external environment (addition of plasma)

CC1(C)C(/C=C/C2=C(Cl)C(=C/C=C3\N(CCCCS(=O)(=O)[O-])c4ccccc4C3(C)C)/CCC2)=[N+](CCCCS(=O)(=O)[O-])c2ccccc21.[Na+] [IR783]
intensity of fluorescence by adding SDS, BSA, or plasma ([1]; lactosome with varied dye content): increased with dependence on fluorescent dye content
fluorescent dye content at which the intensity of fluorescence in PBS was maximized ([1]; lactosome, PBS, polymer 1/15 mg/mL): 5 mol %
Fluorescence maximum ([2]; addition of 5 wt % SDS, polymer 1/15 mg/mL): 810 nm
Fluorescence intensity (A) ([2]; after addition of 5 wt % SDS): 1037533
Fluorescence intensity (PBS)(B) ([2]; in PBS, at the SDS fluorescence maximum wavelength): 50920
Fluorescence maximum ([3]; lactosome (PSar-PLLA) containing 20 mol % of dye (IC7-2: 15 mol %), addition of plasma, polymer 1/15 mg/mL): 803 nm
Fluorescence intensity (A) ([3]; lactosome containing 20 mol % of dye (IC7-2: 15 mol %), after addition of plasma): 1460710
Fluorescence intensity (PBS)(B) ([3]; lactosome containing 20 mol % of dye (IC7-2: 15 mol %), in PBS, at the plasma fluorescence maximum wavelength): 63974
